Results deposited as PubChem BioAssay AID1259254 (NCATS, 2017)

- Test: 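Finding genes that stop cells copying their DNA twice in one cycle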 (primary screen)
- Cells: human HCT116 colorectal cancer cells
- Reagents: single siRNA against human genes
- Duration: 3 days
- Detection: 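Nuclei stained with Hoechst and imaged; cell-cycle phase assigned by DNA content; G2 share scaled per plate, non-targeting siRNA 0%, GMNN siRNA 100%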
- Scale: G2 robust z-score: higher = more G2 cells, more excess DNA replication
- Rule for the call: 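Active siRNAs have a G2 robust z of 5 or more median absolute deviations over the median, which in these data means about 38% or higher of GMNN control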
This is one part, drawn at random, of about 59,000 deposited reagents. About 1,550 of them (2.6%) were called active. 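G2 share is only a proxy for re-replication; each gene was hit by three separate siRNAs, and active genes were retested.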 The numbers tell different reagents against one gene apart. Further read-outs or replicates are left out here. Not given: the amount of reagent.

| target | reagent no. | G2 robust z-score | call |
| --- | --- | --- | --- |
| LCA5 (lebercilin LCA5) | 1 | 1.06 | inactive |
| LCA5 (lebercilin LCA5) | 2 | -0.269 | inactive |
| LCA5 (lebercilin LCA5) | 3 | -0.221 | inactive |
| LGI1 (leucine rich glioma inactivated 1) | 1 | -0.26 | inactive |
| LGI1 (leucine rich glioma inactivated 1) | 2 | -0.55 | inactive |
| LGI1 (leucine rich glioma inactivated 1) | 3 | -1.01 | inactive |
| LRRC75A (leucine rich repeat containing 75A) | 1 | -0.156 | inactive |
| LRRC75A (leucine rich repeat containing 75A) | 2 | 2.17 | inactive |
| LRRC75A (leucine rich repeat containing 75A) | 3 | -0.947 | inactive |
| EPM2AIP1 (EPM2A interacting protein 1) | 1 | 2.18 | inactive |
| EPM2AIP1 (EPM2A interacting protein 1) | 2 | 0.421 | inactive |
| EPM2AIP1 (EPM2A interacting protein 1) | 3 | 8.52 | active |
| AIPL1 (AIP like 1 HSP90 co-chaperone) | 1 | 0.436 | inactive |
| AIPL1 (AIP like 1 HSP90 co-chaperone) | 2 | 6.44 | active |
| AIPL1 (AIP like 1 HSP90 co-chaperone) | 3 | -1.1 | inactive |
| DNAJC5G (DnaJ heat shock protein family (Hsp40) member C5 gamma) | 1 | 0.326 | inactive |
| DNAJC5G (DnaJ heat shock protein family (Hsp40) member C5 gamma) | 2 | -0.745 | inactive |
| DNAJC5G (DnaJ heat shock protein family (Hsp40) member C5 gamma) | 3 | 0.0313 | inactive |
| RSPH3 (radial spoke head 3) | 1 | 0.255 | inactive |
| RSPH3 (radial spoke head 3) | 2 | -1.37 | inactive |
| RSPH3 (radial spoke head 3) | 3 | -0.958 | inactive |
| LOC339902 (hCG1813818) | 1 | -0.889 | inactive |
| LOC339902 (hCG1813818) | 2 | -0.853 | inactive |
| LOC339902 (hCG1813818) | 3 | -0.764 | inactive |
| RSPRY1 (ring finger and SPRY domain containing 1) | 1 | 0.847 | inactive |
| RSPRY1 (ring finger and SPRY domain containing 1) | 2 | -0.397 | inactive |
| RSPRY1 (ring finger and SPRY domain containing 1) | 3 | 6.64 | active |
| SHQ1 (SHQ1, H/ACA ribonucleoprotein assembly factor) | 1 | -0.0294 | inactive |
| SHQ1 (SHQ1, H/ACA ribonucleoprotein assembly factor) | 2 | 5.35 | active |
| SHQ1 (SHQ1, H/ACA ribonucleoprotein assembly factor) | 3 | 0.67 | inactive |
| RPL29P23 (ribosomal protein L29 pseudogene 23) | 1 | 9.73 | active |
| RPL29P23 (ribosomal protein L29 pseudogene 23) | 2 | 0.623 | inactive |
| RPL29P23 (ribosomal protein L29 pseudogene 23) | 3 | 6.55 | active |
| CC2D2A (coiled-coil and C2 domain containing 2A) | 1 | -0.382 | inactive |
| CC2D2A (coiled-coil and C2 domain containing 2A) | 2 | 0.492 | inactive |
| CC2D2A (coiled-coil and C2 domain containing 2A) | 3 | -0.598 | inactive |
| PENK (proenkephalin) | 1 | 0.247 | inactive |
| PENK (proenkephalin) | 2 | -0.178 | inactive |
| PENK (proenkephalin) | 3 | -0.438 | inactive |
| KRTAP5-6 (keratin associated protein 5-6) | 1 | 0.801 | inactive |
| KRTAP5-6 (keratin associated protein 5-6) | 2 | -0.666 | inactive |
| KRTAP5-6 (keratin associated protein 5-6) | 3 | -0.56 | inactive |
| MTSS1 (MTSS I-BAR domain containing 1) | 1 | -0.675 | inactive |
| MTSS1 (MTSS I-BAR domain containing 1) | 2 | 0.296 | inactive |
| MTSS1 (MTSS I-BAR domain containing 1) | 3 | -1.27 | inactive |
| RBSN (rabenosyn, RAB effector) | 1 | -0.324 | inactive |
| RBSN (rabenosyn, RAB effector) | 2 | 1.08 | inactive |
| RBSN (rabenosyn, RAB effector) | 3 | -0.274 | inactive |
| LIN7A (lin-7 cell polarity scaffold A) | 1 | 0.152 | inactive |
| LIN7A (lin-7 cell polarity scaffold A) | 2 | 1.38 | inactive |
| LIN7A (lin-7 cell polarity scaffold A) | 3 | 0.273 | inactive |
| CBLL2 (Cbl proto-oncogene like 2) | 1 | -1.54 | inactive |
| CBLL2 (Cbl proto-oncogene like 2) | 2 | 3.63 | inactive |
| CBLL2 (Cbl proto-oncogene like 2) | 3 | 0.69 | inactive |
| NAT1 (N-acetyltransferase 1) | 1 | -0.489 | inactive |
| NAT1 (N-acetyltransferase 1) | 2 | 0.944 | inactive |
| NAT1 (N-acetyltransferase 1) | 3 | 0.113 | inactive |
| PLN (phospholamban) | 1 | -0.0376 | inactive |
| PLN (phospholamban) | 2 | 1.14 | inactive |
| PLN (phospholamban) | 3 | -0.808 | inactive |
| DIP2A (DIP2 acetate--CoA ligase A) | 1 | -0.449 | inactive |
| DIP2A (DIP2 acetate--CoA ligase A) | 2 | -0.255 | inactive |
| DIP2A (DIP2 acetate--CoA ligase A) | 3 | -0.652 | inactive |
| CD38 (CD38 molecule) | 1 | -0.942 | inactive |
| CD38 (CD38 molecule) | 2 | 1.99 | inactive |
| CD38 (CD38 molecule) | 3 | -0.918 | inactive |
| CCDC174 (coiled-coil domain containing 174) | 1 | -0.764 | inactive |
| CCDC174 (coiled-coil domain containing 174) | 2 | 0.22 | inactive |
| CCDC174 (coiled-coil domain containing 174) | 3 | 2.11 | inactive |

11 of these entries, set out differently.
AIPL1 (AIP like 1 HSP90 co-chaperone) #1
- G2 robust z-score: 0.436
- call: inactive

AIPL1 (AIP like 1 HSP90 co-chaperone) #2
- G2 robust z-score: 6.44
- call: active

AIPL1 (AIP like 1 HSP90 co-chaperone) #3
- G2 robust z-score: -1.1
- call: inactive

DNAJC5G (DnaJ heat shock protein family (Hsp40) member C5 gamma) #1
- G2 robust z-score: 0.326
- call: inactive

DNAJC5G (DnaJ heat shock protein family (Hsp40) member C5 gamma) #2
- G2 robust z-score: -0.745
- call: inactive

DNAJC5G (DnaJ heat shock protein family (Hsp40) member C5 gamma) #3
- G2 robust z-score: 0.0313
- call: inactive

RSPH3 (radial spoke head 3) #1
- G2 robust z-score: 0.255
- call: inactive

RSPH3 (radial spoke head 3) #2
- G2 robust z-score: -1.37
- call: inactive

RSPH3 (radial spoke head 3) #3
- G2 robust z-score: -0.958
- call: inactive

LOC339902 (hCG1813818) #1
- G2 robust z-score: -0.889
- call: inactive

LOC339902 (hCG1813818) #2
- G2 robust z-score: -0.853
- call: inactive
